Assay results taken from PMC7540926.
Results are given in words; binding and its absence hold for the method and conditions named. In cells and extracts the contact can be indirect. Some results given as binding are weak or reduced against the parent protein; the word gives no strength.

Chains of the proteins cited; added tags and fusions are not shown.
UniProt Q8C3P7: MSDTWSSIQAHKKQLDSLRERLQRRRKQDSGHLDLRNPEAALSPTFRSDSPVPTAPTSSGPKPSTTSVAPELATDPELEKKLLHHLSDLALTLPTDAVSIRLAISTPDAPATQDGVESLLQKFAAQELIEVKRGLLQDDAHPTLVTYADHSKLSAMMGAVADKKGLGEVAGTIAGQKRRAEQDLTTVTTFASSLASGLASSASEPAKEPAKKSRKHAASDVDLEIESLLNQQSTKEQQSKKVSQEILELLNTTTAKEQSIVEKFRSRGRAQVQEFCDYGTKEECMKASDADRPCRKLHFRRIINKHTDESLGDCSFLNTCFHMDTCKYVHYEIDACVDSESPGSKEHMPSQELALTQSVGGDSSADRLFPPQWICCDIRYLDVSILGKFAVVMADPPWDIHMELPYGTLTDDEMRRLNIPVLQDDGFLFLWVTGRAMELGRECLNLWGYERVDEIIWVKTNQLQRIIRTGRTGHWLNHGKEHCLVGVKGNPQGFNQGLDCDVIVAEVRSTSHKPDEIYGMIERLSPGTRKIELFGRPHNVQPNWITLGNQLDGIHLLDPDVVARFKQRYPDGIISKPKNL

Target: myc-Mettl3 (mouse) (UniProt Q8C3P7)
Assay: co-IP; HEK293T cells co-transfected for 48 h and lysed in 1% Triton X-100, 1 mM EDTA, 1 mM EGTA, 50 mM NaF, 5 mM Na-pyrophosphate in PBS; anti-myc antibodies on protein A-Sepharose overnight at 4°C; Western blots for myc, V5 and METTL14

B1: endogenous METTL14 (protein, UniProt Q9HCE5 1-456)
chain: MDSRLQEIRERQKLRRQLLAQQLGAESADSIGAVLNSKDEQREIAETRETCRASYDTSAPNAKRKYLDEGETDEDKMEEYKDELEMQQDEENLPYEEEIYKDSSTFLKGTQSLNPHNDYCQHFVDTGHRPQNFIRDVGLADRFEEYPKLRELIRLKDELIAKSNTPPMYLQADIEAFDIRELTPKFDVILLEPPLEEYYRETGITANEKCWTWDDIMKLEIDEIAAPRSFIFLWCGSGEGLDLGRVCLRKWGYRRCEDICWIKTNKNNPGKTKTLDPKAVFQRTKEHCLMGIKGTVKRSTDGDFIHANVDIDLIITEEPEIGNIEKPVEIFHIIEHFCLGRRRLHLFGRDSTIRPGWLTVGPTLTNSNYNAETYASYFSAPNSYLTGCTEEIERLRPKSPPPKSKSDRGGGAPRGGGRGGTSAGRGRERNRSNFRGERGGFRGGRGGAHRGGFPPR
With B1 as the binder, how does the binding read?
The binding was “binds”.
